Data reported in the supplement of paper PMC10849652.
The other results are listed elsewhere or left out.

Amino acid sequences for entries named in this document (tags omitted). A change or cut given only in a name is not applied to a line headed by its entry.
UniProt O75177, whole entry, looked up: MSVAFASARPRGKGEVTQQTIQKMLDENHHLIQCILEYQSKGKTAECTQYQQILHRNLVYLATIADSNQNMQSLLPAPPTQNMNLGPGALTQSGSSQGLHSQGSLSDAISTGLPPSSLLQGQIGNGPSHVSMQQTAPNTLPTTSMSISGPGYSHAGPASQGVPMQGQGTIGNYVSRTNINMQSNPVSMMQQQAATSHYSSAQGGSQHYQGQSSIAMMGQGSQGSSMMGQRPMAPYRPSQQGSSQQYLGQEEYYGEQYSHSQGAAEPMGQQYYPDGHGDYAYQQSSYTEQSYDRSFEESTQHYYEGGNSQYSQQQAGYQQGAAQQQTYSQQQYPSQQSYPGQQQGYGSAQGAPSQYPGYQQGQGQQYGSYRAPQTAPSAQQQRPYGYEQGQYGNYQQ
UniProt Q16384, whole entry, looked up: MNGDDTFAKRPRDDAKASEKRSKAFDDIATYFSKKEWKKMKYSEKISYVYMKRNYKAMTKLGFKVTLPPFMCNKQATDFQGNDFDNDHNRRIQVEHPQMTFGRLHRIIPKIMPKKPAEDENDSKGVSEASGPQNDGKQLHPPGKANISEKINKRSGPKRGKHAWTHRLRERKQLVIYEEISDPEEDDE
UniProt P81877: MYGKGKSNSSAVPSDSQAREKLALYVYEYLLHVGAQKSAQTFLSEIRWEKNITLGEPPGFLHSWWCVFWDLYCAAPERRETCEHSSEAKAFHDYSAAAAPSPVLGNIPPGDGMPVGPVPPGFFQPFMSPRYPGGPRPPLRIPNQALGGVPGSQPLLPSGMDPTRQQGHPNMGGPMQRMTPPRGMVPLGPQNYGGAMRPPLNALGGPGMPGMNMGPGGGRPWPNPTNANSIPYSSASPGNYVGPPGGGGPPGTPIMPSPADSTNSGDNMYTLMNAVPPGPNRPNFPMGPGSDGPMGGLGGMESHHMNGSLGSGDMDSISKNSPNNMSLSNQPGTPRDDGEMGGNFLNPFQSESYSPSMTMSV
UniProt Q9C0H9: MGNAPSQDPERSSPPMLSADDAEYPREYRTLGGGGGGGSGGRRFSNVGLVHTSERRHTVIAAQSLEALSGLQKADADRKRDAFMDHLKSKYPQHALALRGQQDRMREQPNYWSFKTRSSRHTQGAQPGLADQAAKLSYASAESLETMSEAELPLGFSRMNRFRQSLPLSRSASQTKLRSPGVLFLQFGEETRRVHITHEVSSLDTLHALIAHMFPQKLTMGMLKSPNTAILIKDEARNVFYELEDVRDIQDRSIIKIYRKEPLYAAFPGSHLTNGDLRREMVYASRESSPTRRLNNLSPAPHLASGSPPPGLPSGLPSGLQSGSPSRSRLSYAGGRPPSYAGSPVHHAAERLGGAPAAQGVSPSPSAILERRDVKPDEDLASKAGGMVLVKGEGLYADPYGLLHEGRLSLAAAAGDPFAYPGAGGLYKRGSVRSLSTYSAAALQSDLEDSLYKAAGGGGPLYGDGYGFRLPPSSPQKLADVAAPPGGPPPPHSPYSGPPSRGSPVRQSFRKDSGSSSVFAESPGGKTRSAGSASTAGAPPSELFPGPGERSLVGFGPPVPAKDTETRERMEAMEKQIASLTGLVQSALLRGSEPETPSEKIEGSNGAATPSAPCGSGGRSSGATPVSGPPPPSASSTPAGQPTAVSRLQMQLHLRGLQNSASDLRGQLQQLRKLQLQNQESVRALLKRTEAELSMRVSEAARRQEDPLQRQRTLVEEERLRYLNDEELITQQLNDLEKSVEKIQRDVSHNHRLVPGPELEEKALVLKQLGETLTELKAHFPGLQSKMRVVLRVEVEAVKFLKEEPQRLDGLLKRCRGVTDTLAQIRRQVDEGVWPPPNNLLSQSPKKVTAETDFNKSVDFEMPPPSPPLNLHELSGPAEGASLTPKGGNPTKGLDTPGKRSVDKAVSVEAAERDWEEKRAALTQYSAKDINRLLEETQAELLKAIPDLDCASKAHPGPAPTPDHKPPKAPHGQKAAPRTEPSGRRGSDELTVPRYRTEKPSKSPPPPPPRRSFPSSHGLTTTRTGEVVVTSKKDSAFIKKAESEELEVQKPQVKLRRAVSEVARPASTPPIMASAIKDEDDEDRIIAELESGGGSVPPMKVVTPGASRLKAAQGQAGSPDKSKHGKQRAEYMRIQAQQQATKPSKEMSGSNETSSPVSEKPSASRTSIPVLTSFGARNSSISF
UniProt Q9BWG4: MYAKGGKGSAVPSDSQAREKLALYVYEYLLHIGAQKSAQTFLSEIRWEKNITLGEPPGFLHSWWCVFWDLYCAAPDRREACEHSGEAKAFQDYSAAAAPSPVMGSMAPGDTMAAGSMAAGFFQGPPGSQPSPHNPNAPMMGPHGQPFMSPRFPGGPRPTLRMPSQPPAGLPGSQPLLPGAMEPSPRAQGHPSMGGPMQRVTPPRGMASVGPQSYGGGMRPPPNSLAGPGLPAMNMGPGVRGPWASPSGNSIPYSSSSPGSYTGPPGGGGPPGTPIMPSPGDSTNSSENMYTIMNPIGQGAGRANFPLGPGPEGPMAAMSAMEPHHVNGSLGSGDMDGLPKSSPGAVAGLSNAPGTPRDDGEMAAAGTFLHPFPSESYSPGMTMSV
UniProt O43278: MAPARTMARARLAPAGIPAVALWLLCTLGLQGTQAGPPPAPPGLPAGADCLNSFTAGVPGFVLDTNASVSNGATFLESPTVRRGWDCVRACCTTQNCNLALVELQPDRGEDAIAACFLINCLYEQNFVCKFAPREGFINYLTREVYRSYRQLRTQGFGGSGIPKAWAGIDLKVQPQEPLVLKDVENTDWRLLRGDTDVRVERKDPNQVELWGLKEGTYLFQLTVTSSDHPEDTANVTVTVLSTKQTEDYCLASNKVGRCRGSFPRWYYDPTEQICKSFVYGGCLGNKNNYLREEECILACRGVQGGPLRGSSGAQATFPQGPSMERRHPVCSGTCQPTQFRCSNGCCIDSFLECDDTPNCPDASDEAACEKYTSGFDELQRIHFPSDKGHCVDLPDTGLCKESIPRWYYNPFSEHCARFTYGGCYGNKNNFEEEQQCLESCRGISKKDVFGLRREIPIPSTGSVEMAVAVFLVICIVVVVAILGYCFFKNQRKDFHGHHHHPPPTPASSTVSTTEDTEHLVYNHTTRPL
UniProt Q15532, whole entry, looked up: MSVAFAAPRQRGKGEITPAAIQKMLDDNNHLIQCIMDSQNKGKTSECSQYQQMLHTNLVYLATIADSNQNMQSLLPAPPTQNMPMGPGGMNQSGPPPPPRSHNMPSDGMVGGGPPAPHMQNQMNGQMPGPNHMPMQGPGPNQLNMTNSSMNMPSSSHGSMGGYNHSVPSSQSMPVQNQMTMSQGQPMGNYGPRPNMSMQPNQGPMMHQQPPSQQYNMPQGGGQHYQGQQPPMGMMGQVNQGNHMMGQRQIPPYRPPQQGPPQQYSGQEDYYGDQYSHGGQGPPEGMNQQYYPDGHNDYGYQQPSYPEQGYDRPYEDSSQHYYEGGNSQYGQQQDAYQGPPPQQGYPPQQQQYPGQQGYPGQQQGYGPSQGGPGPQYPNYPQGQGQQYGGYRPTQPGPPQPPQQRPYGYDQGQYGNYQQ
UniProt Q13103: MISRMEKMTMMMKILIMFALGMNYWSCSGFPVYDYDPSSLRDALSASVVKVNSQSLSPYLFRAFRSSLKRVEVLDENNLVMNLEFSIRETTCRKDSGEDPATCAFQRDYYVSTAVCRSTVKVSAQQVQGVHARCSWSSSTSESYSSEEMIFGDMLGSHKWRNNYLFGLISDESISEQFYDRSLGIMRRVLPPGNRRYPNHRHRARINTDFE
UniProt Q8N0Z3: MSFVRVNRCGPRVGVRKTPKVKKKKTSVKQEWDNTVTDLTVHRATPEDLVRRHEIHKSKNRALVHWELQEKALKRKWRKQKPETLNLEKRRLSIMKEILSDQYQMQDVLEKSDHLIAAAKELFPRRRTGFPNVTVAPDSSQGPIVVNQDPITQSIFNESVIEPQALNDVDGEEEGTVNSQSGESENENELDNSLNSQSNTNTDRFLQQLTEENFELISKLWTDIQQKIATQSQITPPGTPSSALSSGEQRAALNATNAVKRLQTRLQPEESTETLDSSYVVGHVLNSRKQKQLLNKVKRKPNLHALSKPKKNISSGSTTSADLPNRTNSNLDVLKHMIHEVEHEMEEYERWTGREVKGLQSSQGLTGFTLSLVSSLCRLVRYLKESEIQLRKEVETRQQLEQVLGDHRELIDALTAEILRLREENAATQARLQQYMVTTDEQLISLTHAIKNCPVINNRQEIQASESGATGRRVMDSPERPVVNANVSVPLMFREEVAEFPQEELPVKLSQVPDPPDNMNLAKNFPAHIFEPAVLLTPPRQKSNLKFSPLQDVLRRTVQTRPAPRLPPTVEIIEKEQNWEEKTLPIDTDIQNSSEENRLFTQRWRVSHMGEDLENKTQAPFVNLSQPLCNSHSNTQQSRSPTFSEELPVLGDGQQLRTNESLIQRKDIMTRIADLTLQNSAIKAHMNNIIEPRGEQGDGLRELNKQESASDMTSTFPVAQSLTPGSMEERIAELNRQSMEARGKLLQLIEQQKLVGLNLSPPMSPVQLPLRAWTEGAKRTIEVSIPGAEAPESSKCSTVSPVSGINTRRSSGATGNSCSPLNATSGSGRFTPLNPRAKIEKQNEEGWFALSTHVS
UniProt Q8WVM7: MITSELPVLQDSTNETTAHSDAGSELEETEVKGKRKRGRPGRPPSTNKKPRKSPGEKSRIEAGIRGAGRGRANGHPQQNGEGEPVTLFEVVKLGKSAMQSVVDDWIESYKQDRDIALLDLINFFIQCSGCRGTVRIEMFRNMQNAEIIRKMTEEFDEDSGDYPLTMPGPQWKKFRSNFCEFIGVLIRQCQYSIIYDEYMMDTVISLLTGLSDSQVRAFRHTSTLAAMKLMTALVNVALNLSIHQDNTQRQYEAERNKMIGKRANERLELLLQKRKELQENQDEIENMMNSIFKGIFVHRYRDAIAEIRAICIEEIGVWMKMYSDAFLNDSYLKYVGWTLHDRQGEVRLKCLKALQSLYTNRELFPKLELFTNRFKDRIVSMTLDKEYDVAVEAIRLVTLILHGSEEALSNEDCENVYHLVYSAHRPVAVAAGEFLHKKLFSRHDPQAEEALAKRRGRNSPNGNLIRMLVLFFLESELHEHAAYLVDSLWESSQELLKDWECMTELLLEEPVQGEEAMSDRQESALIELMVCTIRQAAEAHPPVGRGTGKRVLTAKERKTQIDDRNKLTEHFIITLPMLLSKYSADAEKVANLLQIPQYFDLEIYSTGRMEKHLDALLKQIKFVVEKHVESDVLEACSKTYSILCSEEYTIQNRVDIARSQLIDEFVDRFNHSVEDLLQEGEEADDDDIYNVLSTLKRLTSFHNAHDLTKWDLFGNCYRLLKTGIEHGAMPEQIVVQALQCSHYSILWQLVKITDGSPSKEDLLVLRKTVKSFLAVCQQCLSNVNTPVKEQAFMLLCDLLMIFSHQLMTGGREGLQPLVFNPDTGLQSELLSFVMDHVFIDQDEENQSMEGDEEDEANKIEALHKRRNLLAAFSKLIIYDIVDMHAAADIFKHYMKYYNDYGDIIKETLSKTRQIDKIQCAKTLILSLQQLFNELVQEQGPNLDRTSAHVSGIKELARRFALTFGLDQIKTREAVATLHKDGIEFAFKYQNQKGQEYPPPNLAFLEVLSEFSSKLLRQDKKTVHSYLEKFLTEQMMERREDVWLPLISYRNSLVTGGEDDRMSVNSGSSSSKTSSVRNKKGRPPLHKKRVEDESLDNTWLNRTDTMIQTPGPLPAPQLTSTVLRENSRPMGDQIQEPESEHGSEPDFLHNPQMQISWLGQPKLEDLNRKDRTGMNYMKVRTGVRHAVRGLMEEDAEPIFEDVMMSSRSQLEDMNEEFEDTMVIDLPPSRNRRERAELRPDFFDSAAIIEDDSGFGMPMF
UniProt Q8NCJ5: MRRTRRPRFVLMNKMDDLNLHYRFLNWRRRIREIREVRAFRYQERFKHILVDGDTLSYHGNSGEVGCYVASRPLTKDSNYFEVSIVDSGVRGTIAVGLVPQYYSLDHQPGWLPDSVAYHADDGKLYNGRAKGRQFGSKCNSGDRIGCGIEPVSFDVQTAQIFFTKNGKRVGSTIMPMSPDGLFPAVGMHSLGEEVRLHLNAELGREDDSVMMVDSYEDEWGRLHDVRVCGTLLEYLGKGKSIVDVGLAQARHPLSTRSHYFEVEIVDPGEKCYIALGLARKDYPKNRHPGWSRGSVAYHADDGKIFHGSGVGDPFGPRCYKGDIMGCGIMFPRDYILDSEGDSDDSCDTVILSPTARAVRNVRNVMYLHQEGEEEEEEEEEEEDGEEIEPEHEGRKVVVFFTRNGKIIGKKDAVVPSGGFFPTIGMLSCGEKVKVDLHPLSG
UniProt O76061, whole entry, looked up: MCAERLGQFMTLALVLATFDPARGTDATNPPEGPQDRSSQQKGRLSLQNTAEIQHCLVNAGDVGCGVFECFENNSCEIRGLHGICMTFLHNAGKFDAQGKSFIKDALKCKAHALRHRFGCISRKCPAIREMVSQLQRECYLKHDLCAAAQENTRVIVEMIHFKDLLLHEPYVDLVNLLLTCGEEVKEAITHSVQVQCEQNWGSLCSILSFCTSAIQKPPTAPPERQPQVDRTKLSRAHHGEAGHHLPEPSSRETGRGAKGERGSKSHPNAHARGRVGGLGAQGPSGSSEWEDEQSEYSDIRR

Legend:
Experiment in all cases: log2 fold change, soluble protein after heating vs DMSO (PISA); higher = thermal stabilisation; K562 lysate, 10 uM; active = over 0.2 and 3.5 SD of the protein, either way, in both replicates (recomputed)
[1] = compound: c1ccc([C@@H]2C[C@H]2NC2CCNCC2)cc1
In short: (§1)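 To prepare the extract, K562 pellets were dounce-homogenised in PBS pH 7.4 with 1 mM MgCl2, giving crude material at 1 mg/mL protein. This was treated with 10 μM compound for 30 min, then heated in aliquots for 3 min over 48°C-58°C before pooling and addition of NP-40 to 0.5% at 4°C. Centrifugation at 21,000xg for 90 min left soluble protein in the supernatant, which TMTpro 16plex LC-MS/MS quantified with equalised channel sums. Results are log-two fold changes in thermal stability compared with solvent controls, from duplicates.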

[2] = compound: C1=CC=C(C=C1)[C@H](COC2=CC3=C(C=C2)NC(=O)N3)NC(=O)C4=CC=CN(C4=O)CC5=CC(=C(C=C5)F)F
In short: as §1

[3] = compound: CC1=C(SC2=C1C(=N[C@H](C3=NN=C(N32)C)CC(=O)N)C4=CC=C(C=C4)Cl)C
In short: as §1

[4] = compound: CC1=C2C(=CC=C1)N=C(N(C2=O)C3=CC=CC=C3C)CN4C=NC5=C(N=CN=C54)N
In short: as §1

[5] = compound: Cc1sc2c(c1C)C(c1ccc(Cl)cc1)=N[C@@H](CC(=O)OC(C)(C)C)c1nnc(C)n1-2
In short: as §1

STARD4 (UniProt Q96DR4) was tested, and the log2 fold change [1] was inactive: 0.056.

For SS18L1 (UniProt O75177), the log2 fold change [2] was inactive: 0.117, the log2 fold change [3] was inactive: -0.087 and the log2 fold change [1] was inactive: -0.109.

SPRTN (UniProt Q9H040) was tested, and the log2 fold change [4] was inactive: 0.562 and the log2 fold change [5] was inactive: 0.023.

For SSX1 (UniProt Q16384), the log2 fold change [4] was inactive: 0.358, the log2 fold change [5] was inactive: -0.144 and the log2 fold change [1] was inactive: -0.219.

In the case of SRP14 (UniProt H0YLW0), the log2 fold change [2] was inactive: -0.031, the log2 fold change [3] was inactive: 0.048 and the log2 fold change [5] was inactive: -0.32. For the same target, the log2 fold change [1] was inactive: -0.303.

SSBP2 (UniProt P81877) was tested, and the log2 fold change [4] was inactive: 0.06, the log2 fold change [5] was inactive: 0.095 and the log2 fold change [1] was inactive: 0.034.

In the case of SRCIN1 (UniProt Q9C0H9), the log2 fold change [1] was inactive: 0.058.

With SREBF1 isoform 4 (UniProt P36956) the log2 fold change [5] was inactive: 0.001.

For SQOR (UniProt Q9Y6N5), the log2 fold change [5] was inactive: -0.059.

In the case of SSBP4 (UniProt Q9BWG4), the log2 fold change [2] was inactive: 0.078, the log2 fold change [3] was inactive: -0.089 and the log2 fold change [4] was inactive: -0.062. For the same target, the log2 fold change [1] was inactive: -0.083.

For SPRED1 (UniProt Q7Z699), the log2 fold change [2] was inactive: -0.077, the log2 fold change [3] was inactive: -0.05 and the log2 fold change [5] was inactive: 0. For the same target, the log2 fold change [1] was inactive: 0.088.

STAG2 (UniProt Q8N3U4) was tested, and the log2 fold change [1] was inactive: 0.175.

In the case of SPTBN1 isoform 3 (UniProt Q01082), the log2 fold change [5] was inactive: -0.068.

In the case of SPINT1 (UniProt O43278), the log2 fold change [2] was inactive: 0.027, the log2 fold change [3] was inactive: 0.046 and the log2 fold change [1] was inactive: 0.065.

With SS18 (UniProt Q15532) the log2 fold change [4] was inactive: -0.073, the log2 fold change [5] was inactive: -0.045 and the log2 fold change [1] was inactive: 0.11.

With SRRD (UniProt Q9UH36) the log2 fold change [5] was inactive: 0.097 and the log2 fold change [1] was inactive: -0.084.

SSX2IP (UniProt Q9Y2D8) was tested, and the log2 fold change [4] was inactive: -0.159 and the log2 fold change [1] was inactive: -0.024.

In the case of SSBP4 (UniProt U3KPY3), the log2 fold change [2] was inactive: -0.028, the log2 fold change [3] was inactive: 0.041 and the log2 fold change [4] was inactive: -0.027. For the same target, the log2 fold change [1] was inactive: 0.118.

For SSH2 (UniProt Q76I76), the log2 fold change [4] was inactive: 0.117, the log2 fold change [5] was inactive: -0.113 and the log2 fold change [1] was inactive: -0.263.

In the case of SPP2 (UniProt Q13103), the log2 fold change [2] was inactive: 0.191, the log2 fold change [3] was inactive: 0.05 and the log2 fold change [1] was inactive: -0.042.

In the case of STAM (UniProt A6NMU3), the log2 fold change [4] was inactive: -0.21 and the log2 fold change [5] was inactive: 0.002.

SPICE1 (UniProt Q8N0Z3) was tested, and the log2 fold change [4] was inactive: 0.21.

In the case of SREK1IP1 (UniProt Q8N9Q2), the log2 fold change [1] was inactive: 0.131.

With SPATA7 (UniProt Q9P0W8) the log2 fold change [2] was inactive: -0.001, the log2 fold change [3] was inactive: -0.031 and the log2 fold change [4] was inactive: 0.13. For the same target, the log2 fold change [1] was inactive: -0.605.

SPC24 (UniProt K7ESQ2) was tested, and the log2 fold change [1] was inactive: 0.021.

In the case of ST13P4 (UniProt Q8IZP2), the log2 fold change [4] was inactive: 0.149.

In the case of ST3GAL1 (UniProt Q11201), the log2 fold change [5] was inactive: 0.143.

For STAU1 isoform 3 (UniProt O95793), the log2 fold change [2] was inactive: 0.19, the log2 fold change [3] was inactive: 0.043 and the log2 fold change [1] was inactive: 0.081.

STAR (UniProt P49675) was tested, and the log2 fold change [4] was inactive: 0.048, the log2 fold change [5] was inactive: -0.077 and the log2 fold change [1] was inactive: -0.028.

SPIN4 (UniProt Q56A73) was tested, and the log2 fold change [4] was inactive: 0.041 and the log2 fold change [1] was inactive: 0.102.

SRC isoform 2 (UniProt P12931) was tested, and the log2 fold change [2] was inactive: -0.052, the log2 fold change [3] was active: -0.412 and the log2 fold change [5] was inactive: -0.105. The log2 fold change [1] was inactive: 0.017.

With STAG1 (UniProt Q8WVM7) the log2 fold change [2] was inactive: -0.152, the log2 fold change [3] was inactive: 0.008 and the log2 fold change [5] was inactive: -0.018. For the same target, the log2 fold change [1] was inactive: 0.051.

SPTY2D1 (UniProt Q68D10) was tested, and the log2 fold change [2] was inactive: 0.251, the log2 fold change [3] was inactive: -0.304 and the log2 fold change [5] was inactive: -0.056. The log2 fold change [1] was inactive: -0.104.

SPRYD3 (UniProt Q8NCJ5) was tested, and the log2 fold change [2] was inactive: 0.049, the log2 fold change [3] was inactive: -0.073 and the log2 fold change [1] was inactive: -0.04.

For STC2 (UniProt O76061), the log2 fold change [4] was inactive: 0.091, the log2 fold change [5] was inactive: 0.057 and the log2 fold change [1] was inactive: 0.039.

In the case of STAP1 (UniProt Q9ULZ2), the log2 fold change [5] was inactive: -0.101.

In the case of SPOUT1 (UniProt Q5T280), the log2 fold change [4] was inactive: -0.012 and the log2 fold change [5] was inactive: -0.001.

With STARD8 isoform 2 (UniProt Q92502) the log2 fold change [2] was inactive: 0.05, the log2 fold change [3] was inactive: 0 and the log2 fold change [5] was inactive: 0.022.
